Experimental findings from the supplement of paper PMC7125110 are described below.

First the molecules themselves.
B1: glmS ribozyme (parent)
chain: AUAAAAGCGCCAGAACUACAGAAAUGUAGUUGACGAGGAGGAGGUUUAUCGAAUUUUCGGCGGAUGCCUCCAAA

± gives the standard error. Many entries were measured with a wide error.

The variants in one data set derive from B1. Put plainly: KM; higher = weaker cofactor use; RNA array. The note with it: with glucosamine-6-phosphate. Summed up:
(§1)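 Sequenced MiSeq chips were the platform: E. coli RNA polymerase transcribed barcoded ribozyme variants on them in situ, and a hybridised Cy3 probe tracked these at 37 °C. After glucosamine-6-phosphate (40 μM to 10 mM) in HEPES/KCl/Mg(OAc)2 buffer was flowed in, tiles were imaged over ~14 h. Signals normalised to baseline and to non-cleaving reference variants were reduced to per-tile medians and fit to one- or two-exponential decays to obtain kobs. kcat and KM were derived through weighted Michaelis–Menten fits across concentrations.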
The term KM denotes the concentration of substrate that gives half-maximal velocity. As to AUAAAAGCGCCAGAGGUACAGAAAUGUAGUUGACGAGGAGGAGGUUUAUCGAAUUUUCGGCGGAUGCCUCCAAA, the Michaelis constant (KM) came out at 2660 ± 820 µM.

For the variant AUAAAAGCGCCAGACCUACAGAAAUGUAGUUGACGAGGAGGAGGUAUAUCGAAUUUUCGGCGGAUGCCUCCAAA, the Michaelis-Menten constant (KM) worked out at 1940 ± 1700 µM.

AUAAAAGCGCCAGACCUACAGAAAUGUAGAUGACGAGGAGGAGGUUUUUCGAAUUUUCGGCGGAUGCCUCCAAA: the KM amounted to 2170 ± 1200 µM.

Turning to AUAAAAGCGCCAGAGCUACAGAAAUGUAGUUGACGAUGAGGAGGUUUAUCGAAUUUUCGGCGGAUGCCUCCAAA, the KM worked out at 623 ± 300 µM.

Take AUAAAAGCGCCAGGACUACAGAAAUGUAGUUGACGAGGAGGAGGUUUAUCGAACUUUCGGCGGAUGCCUCCAAA: the KM is 4420 ± 270 µM.

As to AUAAAAGCGCCAGGAUUACAGAAAUGUAGUUGACGAGGAGGAGGUUUAUCGAAUUUUCGGCGGAUGCCUCCAAA, the KM is 75.5 ± 48 µM.

AUAAAAGCGCCAGACCUACAGAAAUGUAGUUGACGAGGAGGAGGUUUAUCGAAUUUUCGGCGGAUGCCUUCAAA: the KM worked out at 162 ± 130 µM.

AUAAAAGCGCCAGUACUACAGAAAUGUAGUUGACGAGGAGGAGGUUUAUCGUAUUUUCGGCGGAUGCCUCCAAA: the Michaelis-Menten constant (KM) came to 2930 ± 110 µM.

AUAAAAGCGCCAGGACUACAGAAAUGUAUUUGACGAGGAGGAGGUUUAUCGAAUUUUCGGCGGAUGCCUCCAAA: the KM was determined as 801 ± 550 µM.

As for AUAAAAGCGCCAGACCUACAGAAAUGUAGUUGACGAGGAGGAGGUUUAUCGAAUUUUCGGCGGAUGUCUCCAAA, the KM amounted to 881 ± 330 µM.

For the variant AUAAAAGCGCCAGGACUACAGAAAUGUAGUAGACGAGGAGGAGGUUUAUCGAAUUUUCGGCGGAUGGCUCCAAA, the KM was found to be 550 ± 430 µM.

On to AUAAAAGCGCCAGACCUACAGAAAUGUAGUUGACGAGGAGGAGGUUAAUCGAAUUUUCGGCGGAUGCCUCCAAA, for which the Michaelis constant (KM) stood at 2080 ± 870 µM.

With AUAAAAGCGCCAGACCUACAGAAAUGUAGUUGACGAGGAGGAGGUUUAUCGAAUUUUGGGCGGAUGCCUCCAAA, the KM is 2000 ± 1000 µM.

In the case of AUAAAAGCGCCAGAGCUACAGAAAUGUAGUUGACGAGGAGGAGGUUUAUCGAAUUUUCGGCGGAUGCCACCAAA, the KM is 86.2 ± 52 µM.

Take AUAAAAGCGCCAGACCUACAGAAAUGUAGUUGACGAGGAGGAGGUUUAGCGAAUUUUCGGCGGAUGCCUCCAAA: the KM amounted to 1520 ± 550 µM.

On to AUAAAAGCGCCAGACCUACAGAAAUGUAGUUGACGAGGACGAGGUUUAUCGAAUUUUCGGCGGAUGCCUCCAAA, for which the KM was determined as 1230 ± 420 µM.

Consider AUAAAAGCGCCAGACCUACAGAAAUGUAGUUGACGAGGAAGAGGUUUAUCGAAUUUUCGGCGGAUGCCUCCAAA, for which the Michaelis-Menten constant (KM) came to 1860 ± 840 µM.

Consider AUAAAAGCGCCAGACCUACAGAAAUGUAGUUGACGAGGAGGAGGUUUAUCGAAUGUUCGGCGGAUGCCUCCAAA, for which the KM worked out at 969 ± 700 µM.

On to AUAAAAGCGCCAGAGCUACAGAAAUGUAGUUGACGAGGAGGAGGUUUAUCGAAUUUUCGGCGGAUGACUCCAAA, for which the Michaelis-Menten constant (KM) was determined as 785 ± 430 µM.

As for AUAAAAGCGCCAGUACUACAGAAAUGUAGUUGACGAGGAGGAGGUUUAUCGAAUGUUCGGCGGAUGCCUCCAAA, the KM was determined as 2280 ± 1100 µM.

As to AUAAAAGCGCCAGGACUACAGAAAUGUAGUUCACGAGGAGGAGGUUUAUCGAAUUUUCGGCGGAUGCCUUCAAA, the KM was 17800 ± 9500 µM.

For the variant AUAAAAGCGCCAGACCUACAGAAAUGUAGUUGACGAGGAGGAGGUUUAUUGAAUUUUCGGCGGAUGCCUCCAAA, the KM was 42.3 ± 32 µM.

Regarding AUAAAAGCGCCAGACCUACAGAAAUGUAGUUGACGAGGAGGAGGUUUAUAGAAUUUUCGGCGGAUGCCUCCAAA, the Michaelis constant (KM) worked out at 58.3 ± 56 µM.

For the variant AUAAAAGCGCCAGAGCUACAGAAAUGUAGUUGACGAGGAGGAGGUUUAUCGAAUUGUCGGCGGAUGCCUCCAAA, the Michaelis constant (KM) was determined as 972 ± 640 µM.

In the case of AUAAAAGCGCCAGUACUACAGAAAUGUAGUUGACGGGGAGGAGGUUUAUCGAAUUUUCGGCGGAUUCCUCCAAA, the Michaelis-Menten constant (KM) came out at 50.8 ± 29 µM.

Turning to AUAAAAGCGCCAGGACUACAGAAAUGUAGUUGACGAGGAGGAGGUUUAUCGAAUUUUCGACGGAUGCCUCCAAA, the Michaelis constant (KM) came to 3020 ± 1300 µM.

As for AUAAAAGCGCCAGAGCUACAGAAAUGUAGUUGACGAGGAGGAGGUUUAUCGAAUUUUCUGCGGAUGCCUCCAAA, the KM came out at 3070 ± 1700 µM.

Regarding AUAAAAGCGCCAGGACUACAGAAAUGUAGUUGACGAGGAGGAGGUUUGUCGAAUUUUCGGCGGAUGCCUCCAAA, the KM turned out to be 648 ± 220 µM.

Regarding AUAAAAGCGCCAGUACUACAGAAAUGUAGAUGACGAGGAGGAGGUUUAUCGAAUUUUCGGCGGAUGCCUCCAAA, the KM stood at 2250 ± 960 µM.

As to AUAAAAGCGCCAGGACUACAGAAAUGUAGUUGACGAGGAAGAGGUUUAUCGAAUUUUCGGCGGAUGCCUCCAAA, the KM stood at 256 ± 160 µM.

With AUAAAAGCGCCAGAGCUACAGAAAUGUAGUUGACGAGGAGGAGGUUUAUCGAAUUUUCGGCGGACGCCUCCAAA, the Michaelis-Menten constant (KM) was 1640 ± 850 µM.

For the variant AUAAAAGCGCCAGUACUACAGAAAUGUAGUUGACGAGGAGGAGGUUUAUCGAACUUUCGGCGGAUGCCUCCAAA, the Michaelis-Menten constant (KM) was determined as 1830 ± 830 µM.

For AUAAAAGCGCCAGUACUACAGAAAUGUAGUUGACGAGGAGGAGGUUUAUCGAAGUUUCGGCGGAUGCCUCCAAA, the KM came to 2950 ± 1500 µM.

Variants of B1 are the subject of a further data set. Put plainly: self-cleavage kobs at 160 uM GlcN6P; higher = faster cleavage; RNA array. The note with it: with glucosamine-6-phosphate. Summed up:
as §1
As for AUAAAAGCGCCAGACCUACAGAAAUGUAGUUGACGAGGAGGAGGUAUAUCGAAUUUUCGGCGGAUGCCUCCAAA, the “self-cleavage kobs at 160 uM GlcN6P” value was 3.64e-05 ± 2.2e-05 s⁻¹.

Another data set covers variants of B1. Put plainly: self-cleavage kobs at 640 uM GlcN6P; higher = faster cleavage; RNA array. The conditions noted are these: with glucosamine-6-phosphate. Summed up: as §1
For AUAAAAGCGCCAGACCUACAGAAAUGUAGUUGACGAGGAGGAGGUUUAGCGAAUUUUCGGCGGAUGCCUCCAAA, the “self-cleavage kobs at 640 uM GlcN6P” value was found to be 2.77e-05 ± 1.8e-05 s⁻¹.

Consider AUAAAAGCGCCAGGACUACAGAAAUGUAGUUCACGAGGAGGAGGUUUAUCGAAUUUUCGGCGGAUGCCUUCAAA, for which the “self-cleavage kobs at 640 uM GlcN6P” value stood at 1.94e-05 ± 1.3e-05 s⁻¹.

Variants of B1 are the subject of the next data set. Put plainly: self-cleavage kobs at 40 uM GlcN6P; higher = faster cleavage; RNA array. The conditions noted are these: with glucosamine-6-phosphate. Summed up:
as §1
For the variant AUAAAAGCGCCAGACCUACAGAAAUGUAGUUGACGAGGACGAGGUUUAUCGAAUUUUCGGCGGAUGCCUCCAAA, the “self-cleavage kobs at 40 uM GlcN6P” value amounted to 2.02e-05 ± 1.1e-05 s⁻¹.
